Values from PubChem BioAssay AID743454 (Peter MacCallum Cancer Centre, 2014).
Purpose: 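Genes whose loss kills vorinostat-resistant colon cancer cells under vorinostat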 (primary screen). Cell system: human HCT116-VR colon cancer cells, selected for vorinostat resistance. Knock-down reagent: siRNA pool against human genes, 40 nM siRNA pool. Timing: vorinostat for 24 h, read-out about 72 h after transfection. Challenge: vorinostat at 2.5 µM final. Measured: 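Cell viability by CellTiter-Fluor and caspase 3/7 activity by luminescence, each scaled to mock wells per plate, duplicates averaged, then robust z-scored over all plates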. Direction: viability robust z-score: higher = more viable cells than screen typical; caspase robust z-score: higher = more caspase 3/7 activity than screen typical. Rule for the call: 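a knock-down is a hit when classed RV1 or RV2 for lowered viability, or CA1 or CA2 for caspase activation; those lethal without drug were dropped; hits were retested singly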.
The whole screen tested about 18,000 reagents; shown is an unselected part. Over the whole deposit, 450 (2.5%) are marked active. 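Single biological run; no consistent viability z cut-off exists, so the class columns, not z-scores, define the calls.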 A number with no mark means an inactive call. Reagent sequences are not shown.

gene,viability hit class,caspase hit class,viability robust z-score,caspase robust z-score
GSR (GeneID 2936),no change,no change,-0.02,1.68
BZW1 (GeneID 9689),no change,no change,0.88,-0.78
HBEGF (GeneID 1839),no change,no change,-0.2,5.01
MFSD8 (GeneID 256471),no change,no change,0.08,-0.64
SLC27A1 (GeneID 376497),no change,no change,0.96,0.67
PTPRT (GeneID 11122),no change,no change,0.22,1.27
FNDC5 (GeneID 252995),no change,no change,0.36,-1.2
LGI2 (GeneID 55203),no change,no change,0.02,-0.82
IL13 (GeneID 3596),no change,no change,-0.05,2.15
PRNT (GeneID 149830),no change,no change,-1.1,-1.17
CISD1 (GeneID 55847),no change,no change,0.29,0.84
ZNF484 (GeneID 83744),no change,no change,0.48,-0.08
BAK1 (GeneID 578),no change,no change,-0.7,-1.27
PRND (GeneID 23627),no change,no change,-1.4,0.36
ASIP (GeneID 434),no change,no change,0.92,2.4
B4GALNT3 (GeneID 283358),no change,no change,0.28,-0.89
GRIA2 (GeneID 2891),no change,no change,0.18,-1.07
ASH2L (GeneID 9070),no change (active),CA1 (caspase activation),-1.15,7.12
RAET1G (GeneID 353091),no change,no change,-1.14,-0.87
KMT5B (GeneID 51111),no change,no change,-0.12,2.64
APOBEC4 (GeneID 403314),no change,no change,-1.14,-0.51
TBC1D2B (GeneID 23102),no change (active),CA1 (caspase activation),1.04,5.42
ZBTB40 (GeneID 9923),no change,no change,-0.58,0.29
UBR5 (GeneID 51366),no change,no change,-2.48,3.77
MS4A6A (GeneID 64231),no change,no change,0.05,-0.78
B4GALT2 (GeneID 8704),no change,no change,-0.01,0.03
PDYN (GeneID 5173),no change,no change,0.36,-0.37
GLI2 (GeneID 2736),no change,no change,-0.41,1.84
NLRP10 (GeneID 338322),no change,no change,0.42,-0.6
ZDHHC2 (GeneID 51201),no change,no change,0.27,1.06
SNRNP40 (GeneID 9410),no change,no change,-0.24,1.05
CLPS (GeneID 1208),no change,no change,-0.12,-1.07
MRPL44 (GeneID 65080),no change,no change,0.48,-1.29
MXRA8 (GeneID 54587),no change,no change,1.47,-0.5
JHY (GeneID 79864),no change,no change,0.34,-0.03
ARNT2 (GeneID 9915),no change,no change,2.3,0.97
TAS2R31 (GeneID 259290),no change,no change,-1.29,-0.83
IL19 (GeneID 29949),no change,no change,0.01,-0.16
CAAP1 (GeneID 79886),no change,no change,0.34,-0.44
DNAJB13 (GeneID 374407),no change,no change,-0.64,0.22
LY6G5C (GeneID 80741),no change,no change,1.43,0
DPEP3 (GeneID 64180),no change,no change,-1.04,-1.12
THYN1 (GeneID 29087),no change,no change,0.7,0.3
ALOX15 (GeneID 246),no change (active),CA2 (caspase activation),-2.11,5.56
MEIS2 (GeneID 4212),no change,no change,1.08,1.23
SNX33 (GeneID 257364),no change,no change,0.01,-0.22
OR6C70 (GeneID 390327),no change,no change,-0.11,-0.53
SUPT3H (GeneID 8464),no change,no change,0.42,-0.92
BCL2 (GeneID 596),no change,no change,-1.27,-0.94
DNAI7 (GeneID 55259),no change,no change,-1.9,3.56
DHRSX (GeneID 207063),no change,no change,0.54,-0.73
C2orf42 (GeneID 54980),no change,no change,0.66,-0.46
BFSP1 (GeneID 631),no change,no change,1.41,0.1
SPINK13 (GeneID 153218),no change,no change,0.12,-0.02
DAZL (GeneID 1618),no change,no change,1.43,-0.36
GNA14 (GeneID 9630),no change,no change,0.99,-0.56
ARPC4 (GeneID 10093),no change,no change,0.69,-0.64

Reprinted from the listing (8 entries):
gene,viability hit class,caspase hit class,viability robust z-score,caspase robust z-score
B4GALNT3 (GeneID 283358),no change,no change,0.28,-0.89
GRIA2 (GeneID 2891),no change,no change,0.18,-1.07
ASH2L (GeneID 9070),no change (active),CA1 (caspase activation),-1.15,7.12
RAET1G (GeneID 353091),no change,no change,-1.14,-0.87
KMT5B (GeneID 51111),no change,no change,-0.12,2.64
APOBEC4 (GeneID 403314),no change,no change,-1.14,-0.51
TBC1D2B (GeneID 23102),no change (active),CA1 (caspase activation),1.04,5.42
ZBTB40 (GeneID 9923),no change,no change,-0.58,0.29
